Results from PubChem BioAssay AID540276 (National Center for Advancing Translational Sciences (NCATS), 2011).
Screen size: about 300,000 compounds; about 5,400 (1.8%) were called active. Inconclusive results, whose numbers are uncertain, are shown with a selection of clear calls. Calls follow the shape of the full dose curve; tested in HEK293 cells. Potencies of inconclusive entries are doubtful fits and often do not repeat.

Assay: qHTS for inhibitors of binding or entry into cells for Marburg Virus
Settings: Marburg virus pseudotyped entry inhibition, cell reporter; activity change, negative = inhibition: at 37.8 µM (top of the series) unless noted
% is scaled to controls: 0 for no effect and ±100 for the full control effect; potency is read from the fitted curve at half-maximal effect.

| SMILES | activity change, negative = inhibition | Potency |
| --- | --- | --- |
| C#CCN1C(=O)C(O)(CC(=O)c2ccc(OC)c(OC)c2)c2cc(Br)ccc21 (stereo not given) | inactive: -9.56% [at 46.1 µM] | – |
| C=C(C)Cn1c(-c2cccs2)n[nH]c1=S | – | inconclusive: 3.16 µM [inhibitor, single point] |
| COc1ccc(-c2nc3c(c(SCC(=O)N4CCOCC4)n2)COC(C)(C)C3)cc1 | inactive: 3.2% | – |
| O=C(Nc1nnc(CSCc2ccc(Cl)cc2)s1)c1cccc([N+](=O)[O-])c1 | inactive: -6.15% | – |
| Cc1cccc(NC(=S)N(CCCN2CCOCC2)Cc2cn(C)c3ccccc23)c1 | – | inconclusive: 22.4 µM [inhibitor, single point] |
| C/C(CCN1CCc2nc(-c3ccccc3)c(-c3ccccc3)cc2C1)=N\O[C@@H](C)c1cn([C@H](CO)Cc2ccccc2)nn1 | – | inconclusive: 25.9 µM [inhibitor, partial curve, poor fit] |
| CCOC(=O)C1CCN(Cc2c(O)ccc3ccccc23)CC1 | inactive: 9.02% | – |
| NC(=O)C1CCCN(S(=O)(=O)c2ccc(Br)cc2)C1 (stereo not given) | – | inconclusive: 3.55 µM [activator, single point] |
| CSc1cc(N2CCOCC2)nc(-c2ccccc2Cl)n1 | – | inconclusive: 12.6 µM [inhibitor, single point] |
| c1ccc(-n2cnnc2SCc2nc3ccccc3s2)cc1 | – | inconclusive: 6.51 µM [activator, single point] |
| O=c1c2c3c(sc2n2cnnc2n1Cc1ccccc1)CN(Cc1ccccc1)CC3 | inactive: -27.7% | – |
| Cc1cc(C=O)c(C)n1C1CC1 | – | inconclusive: 3.55 µM [inhibitor, partial curve, poor fit] |
| CC(=O)NC1=NN(C(C)=O)C(C)(c2ccccn2)S1 (stereo not given) | – | inconclusive: 35.5 µM [activator, single point] |
| CC/C=C/C(=O)N1CC2(CC(c3cccc(NC(=O)c4ccccc4)c3)=NO2)C[C@@H]1C(N)=O (stereo not given in full) | inactive: 1.75% | – |
| Cc1ccc(C)c(-c2nnc(NC(=O)C3=COCCO3)o2)c1 | – | inconclusive: 4.47 µM [inhibitor, full curve, poor fit] |
| CCCN1C(=O)c2ccc(C(=O)Nc3nccs3)cc2C1=O | inactive: 3.14% | – |
| O=C(CCc1nc2ccccc2[nH]1)N1CCc2ccccc2C1 | – | inconclusive: 32.6 µM [activator, single point] |
| O=c1[nH]c(=O)c2nnc(N/N=C\c3ccc(O)cc3)nc2[nH]1 | inconclusive: 14.7% [activator] [at 46.1 µM] | – |
| COC(=O)Nc1nc(-c2ccccc2)c(C(=O)c2ccc(Cl)cc2)s1 | – | inconclusive: 0.708 µM [inhibitor, full curve, poor fit] |
| COCCCNC(=O)CSc1nc2ccccc2c(=O)n1CCCC(=O)NCC1CCCO1 (stereo not given) | – | inconclusive: 1 µM [activator, single point] |

Shown with bars between the fields: part of the list above
SMILES | activity change, negative = inhibition | Potency
CCOC(=O)C1CCN(Cc2c(O)ccc3ccccc23)CC1 | inactive: 9.02% | –
NC(=O)C1CCCN(S(=O)(=O)c2ccc(Br)cc2)C1 (stereo not given) | – | inconclusive: 3.55 µM [activator, single point]
